Source: patent publication US12544395B2, “Combination compositions comprising a beta-lactamase inhibitor and uses thereof” (priority 2018, dated 2026)

Assays:
Format in all cases: cell-based
Conditions in all cases: alone
K. pneumoniae 3151 = test: Broth microdilution MIC (strain enzymes: SHV-12, TEM-1)
K. pneumoniae ESBL 7 #2 = test: Broth microdilution MIC (strain enzymes: SHV-12, CTX-M15, TEM-1)
E. coli Si-FDL-GES = tested on: E. coli Si-FDL-GES
E. coli SI-LP377 = tested on: E. coli SI-LP377
K. pneumoniae KPN 508 = test: Broth microdilution MIC (strain enzymes: SHV-7, TEM-1)
K. pneumoniae BAA 1705 = test: Broth microdilution MIC (strain KPC-producing)
E. coli ESBL 4 = test: Broth microdilution MIC (strain enzymes: CTX-M15, TEM-1)
K. pneumoniae KP 8 = test: Broth microdilution MIC (strain enzymes: TEM-10, TEM-1, CTX-M15)
E. coli SI-M004 = test: Broth microdilution MIC (strain enzymes: SHV-2, GES-12)
K. pneumoniae KP 4 = test: Broth microdilution MIC (strain enzymes: SHV-2a, SHV-5, TEM-1)
K. oxytoca 169219 = test: Broth microdilution MIC (strain enzymes: TEM-1, CTXM-15)
E. coli 2150 = test: Broth microdilution MIC (strain enzymes: SHV-3, TEM-1)
E. coli ESBL 2 = test: Broth microdilution MIC (strain enzymes: TEM-1)
E. coli BAS 1 = test: Broth microdilution MIC (strain enzymes: none detected)
K. pneumoniae 170375 = test: Broth microdilution MIC (strain enzymes: SHV-12, CTX-M15 and TEM-1)
K. pneumoniae 319478 = test: Broth microdilution MIC (strain enzymes: SHV-12, CTX-M3 and TEM-1)
K. pneumoniae KP 3 = test: Broth microdilution MIC (strain enzymes: SHV-1, TEM-1)
K. pneumoniae ESBL 7 #1 = test: Broth microdilution MIC (strain enzymes: SHV-12, TEM-1)
E. coli ESBL 5 = test: Broth microdilution MIC (strain enzymes: CTX-M15, TEM-1)
K. pneumoniae SI-KP NO30 = test: Broth microdilution MIC (strain enzymes: TEM-26b, SHV-60, SHV-26)

CC1=C(C(=O)O)N2C(=O)[C@@H](NC(=O)[C@H](N)c3ccccc3)[C@H]2SC1 [Cephalexin, cefalexin, reference compound]
MIC of cefalexin (LEX) (K. pneumoniae 3151): >32 µg/mL
MIC of cefalexin (LEX) (K. pneumoniae ESBL 7 #2): >32 µg/mL
MIC of cefalexin (LEX) (E. coli Si-FDL-GES): >32 µg/mL
MIC of cefalexin (LEX) (E. coli SI-LP377): >32 µg/mL
MIC of cefalexin (LEX) (K. pneumoniae KPN 508): 32 µg/mL
MIC of cefalexin (LEX) (K. pneumoniae BAA 1705): >32 µg/mL
MIC of cefalexin (LEX) (E. coli ESBL 4): >32 µg/mL
MIC of cefalexin (LEX) (K. pneumoniae KP 8): 0.5 µg/mL
MIC of cefalexin (LEX) (E. coli SI-M004): 32 µg/mL
MIC of cefalexin (LEX) (K. pneumoniae KP 4): 8 µg/mL
MIC of cefalexin (LEX) (K. oxytoca 169219): >32 µg/mL
MIC of cefalexin (LEX) (E. coli 2150): >32 µg/mL
MIC of cefalexin (LEX) (E. coli ESBL 2): >32 µg/mL
MIC of cefalexin (LEX) (E. coli BAS 1): >32 µg/mL
MIC of cefalexin (LEX) (K. pneumoniae 170375): >32 µg/mL
MIC of cefalexin (LEX) (K. pneumoniae 319478): >32 µg/mL
MIC of cefalexin (LEX) (K. pneumoniae KP 3): 4 µg/mL
MIC of cefalexin (LEX) (K. pneumoniae ESBL 7 #1): 32 µg/mL
MIC of cefalexin (LEX) (E. coli ESBL 5): >32 µg/mL
MIC of cefalexin (LEX) (K. pneumoniae SI-KP NO30): 0.5 µg/mL
